# Experimental data published in US20030091557A1, “Methods and compositions for modulating ACE-2 activity” (priority 2001, published 2003).
# These are yes or no findings as the source states them, for the method shown. Some entries that bind do so weakly or less than the wild type.
# Biological target: FLAG-tagged ACE-2 (human) (UniProt Q9BYF1)
# Assay: phage ELISA, FLAG-ACE-2 on anti-FLAG antibody plate
row,Binder,binding
1,FDDCQTSWFQGFWLCIDD,binds
2,YFACTNNDSYLFCLDF,binds
3,RIGCRDSRCNWWAPG,binds
4,DDYCFNISSYSYCFDF,binds
5,GSDCEWVNFTMFQMCISN,binds
6,YNFCMLIGERDYCLDF,binds
7,EGNCFLIGPWCFEF,binds
8,KFECMPSSLFCVDF,binds
9,YEDCIGHALFCMTF,binds
10,NWNCLGTNELQFCLDF,binds
11,AWDCEWNLFDSTFFCPGF,binds
12,DDKCFGWAHFCFDF,binds
13,NHHCLEFSSFEYCFDF,binds
14,DDVCYSLIMADYCLDF,binds
15,SDYCVGNNAVTYCFDF,binds
16,GGQCGTSYLFCIDF,binds
17,SNDCVWLQFWGGDMCFLP,binds
18,PNQCGVDIWALFCVDF,binds
19,WEDCLWIGMMCVEF,binds
20,DDVCENADFAWLGWCMHF,binds
21,LHDCFIYADYEYCFDF,binds
22,DDDCMMLPLTMFCFDF,binds

row,Binder,binding
1,YSGCADMYMFCIDF,binds
2,DDHCEWASYWKWDLCLHD,binds
3,HLDCYNLVDNMFCFDF,binds
4,FHDCSWGPWGPWEICTRL,binds
5,SENCQALFCVDF,binds
6,YDNCLGLANLNFCFDF,binds
7,SPTCRALFCVDF,binds
8,NLDCIYLQNHSYCFDF,binds
9,HSECRWEWFGRTMICMSF,binds
10,DNLCMSGGSFDYCFDF,binds
11,NDYCTVFTGALFCLDF,binds
12,PFECDWGPWTLEMLCGPP,binds
13,SGECNWQQFSGWEICLRD,binds
14,DDDCGWIGFANFHLCLHG,binds
15,NADCEWVNFNHVDLCMWN,binds
16,NRECHALFCMDF,binds
17,DFGCNAMFCVEF,binds
18,LYECEWKQFGPVEMCLNF,binds
19,DQNCFAMYCFEF,binds
20,HIECEEWGYWCIEM,binds
21,NPECGALFCMEF,binds
22,AYLCDWILFDSFEMCLAP,binds

# Second part, the binder after the results:
row,binding,Binder
1,binds,MDFCFDWEECWTN
2,binds,HYNCHTNDCVVL
3,binds,FLFCRLASRDSRCASP
4,binds,NDVCLNDDCVYG
5,binds,YAMCFDWDECFLG
6,binds,HLRCMTSDCIHF
7,binds,RGWCLDSRCKVF
8,binds,VYFCFDWEQDCDEM
9,binds,NIFCFDWEPCHFG
10,binds,GIFCFEWETCYQA
11,binds,FSPCKALRHSPWWVCPSG
12,binds,DYLCFDWEACWLS
13,binds,YEYCFEWEQCWEK
14,binds,DDMCRWYPFASFYMCLF [ACE-2 binding polypeptide …- (Sequence Family III)]
15,binds,FEICFDWEVCHEQ
16,binds,VGFCFDWEPCDEL
17,binds,FFPCRALEKDSRCSFF
18,binds,HFSCRLPSLDSRCQLW
19,binds,WVLCFEWEDCDEK
20,binds,YDWCFDWEQCWDQ
21,binds,WPTCLTMDCVYN
22,binds,RGHCRDSRCMMNAPG
23,binds,FNPCRLQSRDSACRFR
24,binds,RGFCRDSSCSFP
25,binds,IGFCFEWEVCYEG
26,binds,PQFCFEWEPCF [ACE-2 binding polypeptide …-- (Sequence Family VI)]
27,binds,YQFCFDWETTCWLD
28,binds,GFTCSPIRMFPWFRCDLG
